# Measured values taken from the supplement of paper PMC8728848.
# The other results are listed elsewhere or left out.
# B1: Clec12b (Mus musculus), Q149M0 (protein)
# chain: MSDEVTYATLMLQDSARVRGNQDGNNLRKEGHPAQSSLWRGAALSLMTLCLVLVTGLVTLATMFLQVSNDINSDSEKLSQLQKSIHPQQDNLSESLNSSRKSLTEESLQSQISALLERQEQMATKLCKEFLIHASDHKCNPCPKTWQWYGNSCYYFSINEEKSWSDSRKDCIDKNATLVKIDSTEERDLLQSQLSLTFSFFWLGLSWNSSGRNWLWEDGSFPPPTLFSDKELASFNGSRDCAYFERGNIYASRCSAEIPWICEKTASLVKTEDLD
# Assays:
# Assay in all cases: glycan array binding signal (z-score within array); higher = stronger binding
# Details in all cases: glycan notation: IUPAC condensed, linker removed
# [1] = target: Gal(b1-4)GlcNAc(b1-6)Gal(b1-4)GlcNAc
# Summary of the method: (§1)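 Negative Z-scores can be read as non-binding. The Z-score is calculated within each array and then averaged across arrays of one protein sequence at different concentrations or buffers and across linkers. Arrays, 3228 in all, were curated from the Consortium for Functional Glycomics database and kept only where the protein sequence was available.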
# [2] = target: Gal(b1-4)GlcNAc(b1-6)GalNAc
# Summary of the method: as §1
# [3] = target: Gal(b1-4)GlcNAc(b1-6)[Gal(b1-3)]GalNAc
# Summary of the method: as §1
# [4] = target: Gal(b1-4)GlcNAc(b1-6)[Gal(b1-4)GlcNAc(b1-3)]GalNAc
# Summary of the method: as §1
# Gal(b1-4)GlcNAc6P = target: Gal(b1-4)GlcNAc6P
# Summary of the method: as §1
# Gal(b1-6)Gal = target: Gal(b1-6)Gal
# Summary of the method: as §1
# Gal3S(b1-3)GalNAc = target: Gal3S(b1-3)GalNAc
# Summary of the method: as §1
# Gal3S(b1-3)GlcNAc = target: Gal3S(b1-3)GlcNAc
# Summary of the method: as §1
# [5] = target: Gal3S(b1-3)[Fuc(a1-4)]GlcNAc
# Summary of the method: as §1
# Gal3S(b1-4)Glc = target: Gal3S(b1-4)Glc
# Summary of the method: as §1
# Gal3S(b1-4)Glc6S = target: Gal3S(b1-4)Glc6S
# Summary of the method: as §1
# Gal3S(b1-4)GlcNAc = target: Gal3S(b1-4)GlcNAc
# Summary of the method: as §1
# [6] = target: Gal3S(b1-4)[Fuc(a1-3)]Glc6S
# Summary of the method: as §1
# [7] = target: Gal3S(b1-4)[Fuc(a1-3)]GlcNAc
# Summary of the method: as §1
# [8] = target: Gal3S(b1-4)[Fuc(a1-3)]GlcNAc6S
# Summary of the method: as §1
# Gal3S4S(b1-4)GlcNAc = target: Gal3S4S(b1-4)GlcNAc
# Summary of the method: as §1
# Gal3S6S(b1-4)GlcNAc = target: Gal3S6S(b1-4)GlcNAc
# Summary of the method: as §1
# Gal3S6S(b1-4)GlcNAc6S = target: Gal3S6S(b1-4)GlcNAc6S
# Summary of the method: as §1
# Gal4S(b1-4)GlcNAc = target: Gal4S(b1-4)GlcNAc
# Summary of the method: as §1
# Gal4S6S(b1-4)GlcNAc = target: Gal4S6S(b1-4)GlcNAc
# Summary of the method: as §1
# Gal6P(b1-4)GlcNAc = target: Gal6P(b1-4)GlcNAc
# Summary of the method: as §1
# Gal6S(b1-3)GlcNAc = target: Gal6S(b1-3)GlcNAc
# Summary of the method: as §1
# Gal6S(b1-3)GlcNAc6S = target: Gal6S(b1-3)GlcNAc6S
# Summary of the method: as §1
# Gal6S(b1-4)Glc = target: Gal6S(b1-4)Glc
# Summary of the method: as §1
# Gal6S(b1-4)Glc6S = target: Gal6S(b1-4)Glc6S
# Summary of the method: as §1
# Gal6S(b1-4)GlcNAc = target: Gal6S(b1-4)GlcNAc
# Summary of the method: as §1
# Gal6S(b1-4)GlcNAc6S = target: Gal6S(b1-4)GlcNAc6S
# Summary of the method: as §1
# GalNAc(a1-3)Gal = target: GalNAc(a1-3)Gal
# Summary of the method: as §1
# GalNAc(a1-3)GalNAc = target: GalNAc(a1-3)GalNAc
# Summary of the method: as §1
# [9] = target: GalNAc(a1-3)GalNAc(b1-3)Gal(a1-4)Gal(b1-4)Glc
# Summary of the method: as §1
# [10] = target: GalNAc(a1-3)GalNAc(b1-3)Gal(a1-4)Gal(b1-4)GlcNAc
# Summary of the method: as §1
# GalNAc(b1-3)Gal = target: GalNAc(b1-3)Gal
# Summary of the method: as §1
# [11] = target: GalNAc(b1-3)Gal(a1-4)Gal(b1-4)GlcNAc
# Summary of the method: as §1
# [12] = target: GalNAc(b1-3)Gal(a1-4)Gal(b1-4)GlcNAc(b1-3)Gal(b1-4)Glc
# Summary of the method: as §1
# [13] = target: GalNAc(b1-3)Gal(a1-6)Gal(b1-4)Glc
# Summary of the method: as §1
# GalNAc(b1-3)GalNAc = target: GalNAc(b1-3)GalNAc
# Summary of the method: as §1
# GalNAc(b1-3)GlcNAc = target: GalNAc(b1-3)GlcNAc
# Summary of the method: as §1
# GalNAc(b1-4)Gal(b1-4)Glc = target: GalNAc(b1-4)Gal(b1-4)Glc
# Summary of the method: as §1
binder,measurement,setting,value
B1,glycan array binding signal (z-score),[1],-0.107
same,glycan array binding signal (z-score),[2],-0.428
same,glycan array binding signal (z-score),[3],-0.227
same,glycan array binding signal (z-score),[4],0.417
same,glycan array binding signal (z-score),Gal(b1-4)GlcNAc6P,0.097
same,glycan array binding signal (z-score),Gal(b1-6)Gal,-0.5
same,glycan array binding signal (z-score),Gal3S(b1-3)GalNAc,-0.284
same,glycan array binding signal (z-score),Gal3S(b1-3)GlcNAc,0.026
same,glycan array binding signal (z-score),[5],-0.44
same,glycan array binding signal (z-score),Gal3S(b1-4)Glc,1.5
same,glycan array binding signal (z-score),Gal3S(b1-4)Glc6S,0.531
same,glycan array binding signal (z-score),Gal3S(b1-4)GlcNAc,-0.199
same,glycan array binding signal (z-score),[6],2.1
same,glycan array binding signal (z-score),[7],-0.281
same,glycan array binding signal (z-score),[8],0.41
same,glycan array binding signal (z-score),Gal3S4S(b1-4)GlcNAc,-0.044
same,glycan array binding signal (z-score),Gal3S6S(b1-4)GlcNAc,-0.112
same,glycan array binding signal (z-score),Gal3S6S(b1-4)GlcNAc6S,0.23
same,glycan array binding signal (z-score),Gal4S(b1-4)GlcNAc,-0.218
same,glycan array binding signal (z-score),Gal4S6S(b1-4)GlcNAc,-0.671
same,glycan array binding signal (z-score),Gal6P(b1-4)GlcNAc,-0.695
same,glycan array binding signal (z-score),Gal6S(b1-3)GlcNAc,0.386
same,glycan array binding signal (z-score),Gal6S(b1-3)GlcNAc6S,-0.655
same,glycan array binding signal (z-score),Gal6S(b1-4)Glc,1.96
same,glycan array binding signal (z-score),Gal6S(b1-4)Glc6S,1.24
same,glycan array binding signal (z-score),Gal6S(b1-4)GlcNAc,-0.525
same,glycan array binding signal (z-score),Gal6S(b1-4)GlcNAc6S,-0.228
same,glycan array binding signal (z-score),GalNAc(a1-3)Gal,1.15
same,glycan array binding signal (z-score),GalNAc(a1-3)GalNAc,-0.461
same,glycan array binding signal (z-score),[9],-0.172
same,glycan array binding signal (z-score),[10],-0.428
same,glycan array binding signal (z-score),GalNAc(b1-3)Gal,0.114
same,glycan array binding signal (z-score),[11],0.178
same,glycan array binding signal (z-score),[12],-0.695
same,glycan array binding signal (z-score),[13],-0.176
same,glycan array binding signal (z-score),GalNAc(b1-3)GalNAc,-0.125
same,glycan array binding signal (z-score),GalNAc(b1-3)GlcNAc,-0.387
same,glycan array binding signal (z-score),GalNAc(b1-4)Gal(b1-4)Glc,0.106

# Retrieved one by one from above, two records:
binder,measurement,setting,value
B1,glycan array binding signal (z-score),[13],-0.176
same,glycan array binding signal (z-score),GalNAc(b1-3)GalNAc,-0.125
